According to article PMC4941050:
Weaker means in comparison with the reference protein, sequence or condition of that experiment.

Protein sequences, listed by entry. Tags and fused reporters are not part of them. Lines headed by an entry give the natural chain unless they say otherwise; changes in a name come on top.
UniProt P26358: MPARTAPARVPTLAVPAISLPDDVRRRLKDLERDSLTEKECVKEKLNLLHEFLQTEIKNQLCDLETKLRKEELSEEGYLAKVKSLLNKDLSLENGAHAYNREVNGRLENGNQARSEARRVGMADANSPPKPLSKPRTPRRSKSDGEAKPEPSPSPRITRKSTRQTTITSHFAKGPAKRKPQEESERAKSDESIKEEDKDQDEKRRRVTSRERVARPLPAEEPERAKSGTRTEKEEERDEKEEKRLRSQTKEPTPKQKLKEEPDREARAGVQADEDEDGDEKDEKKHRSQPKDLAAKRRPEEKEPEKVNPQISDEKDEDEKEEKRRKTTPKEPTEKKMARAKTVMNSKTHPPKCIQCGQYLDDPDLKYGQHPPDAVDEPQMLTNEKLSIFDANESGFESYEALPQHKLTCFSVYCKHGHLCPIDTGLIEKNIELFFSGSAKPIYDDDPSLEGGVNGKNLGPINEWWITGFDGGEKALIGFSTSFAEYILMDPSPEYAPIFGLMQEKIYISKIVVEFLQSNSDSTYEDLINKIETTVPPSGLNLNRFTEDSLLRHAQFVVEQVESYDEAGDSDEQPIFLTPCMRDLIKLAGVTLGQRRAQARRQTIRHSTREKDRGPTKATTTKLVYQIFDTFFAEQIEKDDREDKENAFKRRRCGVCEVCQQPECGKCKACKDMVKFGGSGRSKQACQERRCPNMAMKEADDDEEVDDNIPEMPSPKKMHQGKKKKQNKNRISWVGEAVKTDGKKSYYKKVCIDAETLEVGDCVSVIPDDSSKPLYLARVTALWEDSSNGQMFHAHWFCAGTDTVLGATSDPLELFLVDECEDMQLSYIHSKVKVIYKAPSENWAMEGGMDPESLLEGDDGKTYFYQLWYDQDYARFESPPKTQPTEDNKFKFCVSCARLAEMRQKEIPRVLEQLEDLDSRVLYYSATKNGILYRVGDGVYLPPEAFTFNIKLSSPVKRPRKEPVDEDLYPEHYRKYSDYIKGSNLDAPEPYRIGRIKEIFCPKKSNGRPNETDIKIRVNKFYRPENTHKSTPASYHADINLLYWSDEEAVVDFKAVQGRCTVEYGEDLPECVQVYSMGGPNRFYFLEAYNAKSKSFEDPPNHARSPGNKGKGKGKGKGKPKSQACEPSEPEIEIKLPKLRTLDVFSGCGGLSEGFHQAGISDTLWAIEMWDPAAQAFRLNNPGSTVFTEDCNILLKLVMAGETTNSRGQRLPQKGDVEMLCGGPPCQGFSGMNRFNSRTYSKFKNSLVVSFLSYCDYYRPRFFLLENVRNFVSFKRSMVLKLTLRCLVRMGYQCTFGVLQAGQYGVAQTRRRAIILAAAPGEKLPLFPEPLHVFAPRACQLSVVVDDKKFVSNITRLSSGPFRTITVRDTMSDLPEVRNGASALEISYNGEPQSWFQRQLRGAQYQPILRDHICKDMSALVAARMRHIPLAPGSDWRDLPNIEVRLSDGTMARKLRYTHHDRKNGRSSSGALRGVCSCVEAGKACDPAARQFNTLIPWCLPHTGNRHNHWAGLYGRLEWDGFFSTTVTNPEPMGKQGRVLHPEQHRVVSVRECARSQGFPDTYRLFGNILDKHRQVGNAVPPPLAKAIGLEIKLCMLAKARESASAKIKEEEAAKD

Molecular target: DNMT1 (human) (UniProt P26358)
Experiment: EMSA
Details: 0.2 uM protein, only slight binding; 20 mM HEPES, 40 mM KCl, 1 mM EDTA, 0.2 mM DTT, 0.1 mg/ml BSA, 0.1% Tween-20, 20% glycerol; pH not stated; 1 h at 37 C; 1 nM probe; native 4-20% PAGE; commercial protein; residues 1-1616; label: 5'-Cy5.5

Row | Sequence | binding result
1 | GGGGACACGCCCUCUGUUCCCUUAU [ecRNA-1] | binds more weakly
2 | GUCUGUGCACCGUGUGCAUAUACAG [ecRNA-2] | binds more weakly
